Laboratory results: article PMC4917822 (Scientific Reports, 2016)

Test: general procedure: Fmoc solid-phase peptide synthesis; H-Rink Amide-ChemMatrix; HBTU/HOBt/DIEA
Conditions: RP-HPLC

pHLIP(WT)-(KLAKLAK)2
final HPLC purity (conjugation step): >98%

pHLIP(WT)-KLAKLAK
final HPLC purity (conjugation step): >98%

CKLAKLAKKLAKLAK
final HPLC purity (whole synthesis): >98%

CKLAKLAK
final HPLC purity (whole synthesis): >98%

GGEQNPIYWARYADWLFTTPLLLLDLALLVDADEGTCG
final HPLC purity (whole synthesis): >98%

Where a sequence shows no end group, the ends are not given. One purity is given for all peptides; the source may state it once.
